These are yes or no findings as the source states them, for the method shown. In cells and extracts the contact can be indirect. Some binding calls cover weakened binding; strength is not graded here. Tags and fused reporters may be left off the sequences shown.

Sequences of proteins named here, by UniProt entry; tags and fusion partners are left off. Residues count along the entry.
UniProt Q14247: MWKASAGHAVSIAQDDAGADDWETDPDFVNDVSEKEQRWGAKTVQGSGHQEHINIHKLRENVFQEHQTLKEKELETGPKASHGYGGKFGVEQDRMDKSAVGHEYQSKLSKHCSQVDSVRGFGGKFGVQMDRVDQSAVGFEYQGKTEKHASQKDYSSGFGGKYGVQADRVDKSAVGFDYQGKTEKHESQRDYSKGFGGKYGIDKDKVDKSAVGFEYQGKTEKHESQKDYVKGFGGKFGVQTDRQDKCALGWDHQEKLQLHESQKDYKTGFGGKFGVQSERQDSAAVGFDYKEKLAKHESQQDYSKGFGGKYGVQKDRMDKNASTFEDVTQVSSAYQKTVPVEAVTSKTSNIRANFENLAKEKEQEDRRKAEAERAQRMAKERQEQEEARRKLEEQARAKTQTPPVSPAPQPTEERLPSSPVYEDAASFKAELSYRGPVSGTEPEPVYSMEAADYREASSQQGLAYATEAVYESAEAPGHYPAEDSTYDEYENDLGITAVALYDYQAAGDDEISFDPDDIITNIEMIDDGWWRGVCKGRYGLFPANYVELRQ
UniProt Q05397: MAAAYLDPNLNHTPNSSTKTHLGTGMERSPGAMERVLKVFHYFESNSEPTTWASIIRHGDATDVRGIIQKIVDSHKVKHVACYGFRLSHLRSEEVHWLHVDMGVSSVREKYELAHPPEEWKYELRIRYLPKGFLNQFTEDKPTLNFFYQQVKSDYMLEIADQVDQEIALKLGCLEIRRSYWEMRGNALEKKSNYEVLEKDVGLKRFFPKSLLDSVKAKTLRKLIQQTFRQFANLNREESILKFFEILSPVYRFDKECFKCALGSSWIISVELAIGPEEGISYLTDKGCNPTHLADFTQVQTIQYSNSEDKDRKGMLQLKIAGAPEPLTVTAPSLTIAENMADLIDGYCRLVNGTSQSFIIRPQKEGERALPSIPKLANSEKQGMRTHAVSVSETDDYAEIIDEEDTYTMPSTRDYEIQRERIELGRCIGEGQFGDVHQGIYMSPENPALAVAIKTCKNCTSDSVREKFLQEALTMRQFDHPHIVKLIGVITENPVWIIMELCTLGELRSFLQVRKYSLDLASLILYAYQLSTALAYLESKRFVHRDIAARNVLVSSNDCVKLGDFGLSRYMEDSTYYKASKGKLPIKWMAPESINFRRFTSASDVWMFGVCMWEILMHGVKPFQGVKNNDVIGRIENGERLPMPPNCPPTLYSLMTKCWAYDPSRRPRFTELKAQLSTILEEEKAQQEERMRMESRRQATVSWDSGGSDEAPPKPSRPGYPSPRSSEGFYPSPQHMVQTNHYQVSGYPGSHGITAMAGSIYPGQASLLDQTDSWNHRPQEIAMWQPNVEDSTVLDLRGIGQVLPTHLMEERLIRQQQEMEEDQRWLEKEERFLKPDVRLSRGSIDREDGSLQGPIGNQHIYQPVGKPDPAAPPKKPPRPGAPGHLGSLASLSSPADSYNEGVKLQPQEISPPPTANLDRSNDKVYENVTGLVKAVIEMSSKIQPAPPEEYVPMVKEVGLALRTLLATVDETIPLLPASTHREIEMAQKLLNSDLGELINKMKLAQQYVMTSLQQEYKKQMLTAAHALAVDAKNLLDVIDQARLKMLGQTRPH
UniProt P05106, residues 27-788: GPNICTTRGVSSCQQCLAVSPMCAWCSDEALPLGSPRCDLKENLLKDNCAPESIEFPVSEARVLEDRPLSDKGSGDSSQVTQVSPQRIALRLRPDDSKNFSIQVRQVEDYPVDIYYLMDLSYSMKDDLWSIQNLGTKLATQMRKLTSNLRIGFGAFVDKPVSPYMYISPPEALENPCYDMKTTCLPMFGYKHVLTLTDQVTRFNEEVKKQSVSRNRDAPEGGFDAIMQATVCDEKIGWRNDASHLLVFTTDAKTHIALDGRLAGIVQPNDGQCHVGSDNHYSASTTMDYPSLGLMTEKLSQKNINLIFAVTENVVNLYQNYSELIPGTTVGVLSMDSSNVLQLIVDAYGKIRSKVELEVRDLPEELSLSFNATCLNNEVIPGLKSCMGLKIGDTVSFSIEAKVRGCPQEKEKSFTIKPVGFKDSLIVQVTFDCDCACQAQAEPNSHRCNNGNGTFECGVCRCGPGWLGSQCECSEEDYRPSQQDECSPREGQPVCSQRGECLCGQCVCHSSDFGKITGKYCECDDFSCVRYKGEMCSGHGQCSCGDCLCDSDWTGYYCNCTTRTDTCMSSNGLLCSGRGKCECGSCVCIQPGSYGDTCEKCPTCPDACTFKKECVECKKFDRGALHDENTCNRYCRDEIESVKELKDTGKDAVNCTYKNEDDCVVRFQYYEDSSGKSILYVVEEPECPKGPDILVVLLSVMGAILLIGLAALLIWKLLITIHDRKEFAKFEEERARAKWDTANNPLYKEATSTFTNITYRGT
UniProt P35580: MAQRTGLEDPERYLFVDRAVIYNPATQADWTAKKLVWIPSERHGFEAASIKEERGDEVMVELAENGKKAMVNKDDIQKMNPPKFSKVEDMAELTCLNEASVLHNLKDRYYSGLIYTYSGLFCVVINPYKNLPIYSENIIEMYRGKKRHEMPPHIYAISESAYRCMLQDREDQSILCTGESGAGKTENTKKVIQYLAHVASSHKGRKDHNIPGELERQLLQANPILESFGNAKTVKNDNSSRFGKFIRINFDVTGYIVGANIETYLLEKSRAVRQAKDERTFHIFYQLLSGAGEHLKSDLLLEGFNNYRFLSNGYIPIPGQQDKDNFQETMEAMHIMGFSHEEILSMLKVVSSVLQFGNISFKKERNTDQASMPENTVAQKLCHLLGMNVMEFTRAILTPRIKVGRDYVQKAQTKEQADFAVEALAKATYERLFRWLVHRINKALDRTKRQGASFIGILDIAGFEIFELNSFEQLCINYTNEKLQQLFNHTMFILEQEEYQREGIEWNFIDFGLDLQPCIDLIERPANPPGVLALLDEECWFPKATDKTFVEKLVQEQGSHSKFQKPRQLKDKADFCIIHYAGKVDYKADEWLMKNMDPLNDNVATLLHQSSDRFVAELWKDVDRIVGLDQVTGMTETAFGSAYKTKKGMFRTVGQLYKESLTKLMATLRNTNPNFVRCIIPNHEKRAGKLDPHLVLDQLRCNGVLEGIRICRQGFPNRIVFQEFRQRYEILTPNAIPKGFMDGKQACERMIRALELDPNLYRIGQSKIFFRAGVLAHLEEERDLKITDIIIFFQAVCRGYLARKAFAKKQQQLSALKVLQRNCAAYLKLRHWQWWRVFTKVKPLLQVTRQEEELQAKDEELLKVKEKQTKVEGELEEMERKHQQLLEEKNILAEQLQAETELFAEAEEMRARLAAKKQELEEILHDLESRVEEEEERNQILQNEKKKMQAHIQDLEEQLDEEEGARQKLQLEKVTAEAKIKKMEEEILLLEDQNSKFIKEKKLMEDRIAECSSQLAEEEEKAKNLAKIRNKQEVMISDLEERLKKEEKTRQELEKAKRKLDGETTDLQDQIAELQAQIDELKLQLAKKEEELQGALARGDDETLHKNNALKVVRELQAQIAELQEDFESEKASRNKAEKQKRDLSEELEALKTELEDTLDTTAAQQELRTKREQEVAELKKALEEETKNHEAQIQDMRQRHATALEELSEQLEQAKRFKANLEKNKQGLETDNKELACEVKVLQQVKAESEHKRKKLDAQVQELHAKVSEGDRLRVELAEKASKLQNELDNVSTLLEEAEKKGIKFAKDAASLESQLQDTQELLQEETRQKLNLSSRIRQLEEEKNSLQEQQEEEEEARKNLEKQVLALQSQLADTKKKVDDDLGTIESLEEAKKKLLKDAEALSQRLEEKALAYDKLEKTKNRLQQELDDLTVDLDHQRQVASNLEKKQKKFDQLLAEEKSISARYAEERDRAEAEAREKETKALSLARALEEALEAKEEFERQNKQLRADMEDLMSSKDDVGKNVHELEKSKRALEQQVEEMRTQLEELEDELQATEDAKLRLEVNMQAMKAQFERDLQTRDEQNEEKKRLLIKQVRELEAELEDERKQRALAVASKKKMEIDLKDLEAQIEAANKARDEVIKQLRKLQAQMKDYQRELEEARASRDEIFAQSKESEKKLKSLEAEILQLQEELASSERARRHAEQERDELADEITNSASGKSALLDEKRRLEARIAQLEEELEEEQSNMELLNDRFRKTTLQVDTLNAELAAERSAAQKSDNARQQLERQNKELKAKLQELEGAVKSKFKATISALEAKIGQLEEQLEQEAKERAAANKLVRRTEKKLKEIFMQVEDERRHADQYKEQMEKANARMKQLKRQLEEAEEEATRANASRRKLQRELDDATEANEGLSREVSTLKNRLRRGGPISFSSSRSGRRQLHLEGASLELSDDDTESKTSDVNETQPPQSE

This assay deals with T1, HA-tagged syndecan-1 (human) (UniProt P18827).
T1 sequence: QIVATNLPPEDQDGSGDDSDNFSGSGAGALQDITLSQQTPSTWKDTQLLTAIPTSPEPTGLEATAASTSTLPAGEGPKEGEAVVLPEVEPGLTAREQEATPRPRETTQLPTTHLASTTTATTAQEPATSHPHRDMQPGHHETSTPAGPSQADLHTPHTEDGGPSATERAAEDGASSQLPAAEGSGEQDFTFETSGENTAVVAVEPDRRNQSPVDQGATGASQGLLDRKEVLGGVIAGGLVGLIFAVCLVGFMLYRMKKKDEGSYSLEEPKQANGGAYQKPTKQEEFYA
Briefly: co-IP.
Turning to cortactin (from UniProt Q14247 1-550), the binding result is “binds”.
On to “focal adhesion kinase (from UniProt Q05397 1-1052) (enzyme)”, for which the binding result is “binds”.
With “integrin β3 (from UniProt P05106 27-788) (receptor)”, the binding result is on record as “binds”.
For the substance “non-muscle myosin IIb (from UniProt P35580 1-1976)”, the binding result is listed as “binds”.

The values are drawn from publication doi:10.1101/2020.05.09.085894.
